{"source": "PubChem BioAssay AID1259254 (NCATS, 2017)", "screen": "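Finding genes that stop cells copying their DNA twice in one cycle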 (primary screen)", "cells": "human HCT116 colorectal cancer cells", "knock-down reagent": "single siRNA against human genes", "timing": "3 days", "measurement": "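Imaged Hoechst DNA stain sorts each cell into a cycle phase by DNA amount; per plate, G2 fraction set to 0% for non-targeting and 100% for GMNN siRNA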", "reading the numbers": "G2 robust z-score and G2 cells, % of GMNN control: higher = more G2 cells, more excess DNA replication", "hit rule": "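An siRNA counts as active if its G2 robust z-score lies at least 5 MADs above the screen median; here such calls match roughly 38% of GMNN control or more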", "note": "The deposit covers about 59,000 reagents; shown is a random part of them. About 1,550 of them (2.6%) were called active. 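G2 share is only a proxy for re-replication; each gene was hit by three separate siRNAs, and active genes were retested.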 The numbers tell different reagents against one gene apart. Not all columns of the deposit are shown. Not given: the amount of reagent."}
{"gene symbol": "ITFG2", "siRNA no.": 1, "G2 robust z-score": 2.74, "G2 cells, % of GMNN control": 22.2, "Outcome": "inactive"}
{"gene symbol": "ITFG2", "siRNA no.": 2, "G2 robust z-score": 0.605, "G2 cells, % of GMNN control": 7.22, "Outcome": "inactive"}
{"gene symbol": "ITFG2", "siRNA no.": 3, "G2 robust z-score": -0.859, "G2 cells, % of GMNN control": -3.08, "Outcome": "inactive"}
{"gene symbol": "TMPPE", "siRNA no.": 1, "G2 robust z-score": -0.486, "G2 cells, % of GMNN control": -0.45, "Outcome": "inactive"}
{"gene symbol": "TMPPE", "siRNA no.": 2, "G2 robust z-score": -0.836, "G2 cells, % of GMNN control": -2.92, "Outcome": "inactive"}
{"gene symbol": "TMPPE", "siRNA no.": 3, "G2 robust z-score": -0.895, "G2 cells, % of GMNN control": -3.33, "Outcome": "inactive"}
{"gene symbol": "TMPO", "siRNA no.": 1, "G2 robust z-score": -0.277, "G2 cells, % of GMNN control": 1.02, "Outcome": "inactive"}
{"gene symbol": "TMPO", "siRNA no.": 2, "G2 robust z-score": 1.86, "G2 cells, % of GMNN control": 16.1, "Outcome": "inactive"}
{"gene symbol": "TMPO", "siRNA no.": 3, "G2 robust z-score": -0.138, "G2 cells, % of GMNN control": 2, "Outcome": "inactive"}
{"gene symbol": "RAP1B", "siRNA no.": 1, "G2 robust z-score": -0.512, "G2 cells, % of GMNN control": -0.634, "Outcome": "inactive"}
{"gene symbol": "RAP1B", "siRNA no.": 2, "G2 robust z-score": -0.425, "G2 cells, % of GMNN control": -0.0202, "Outcome": "inactive"}
{"gene symbol": "RAP1B", "siRNA no.": 3, "G2 robust z-score": 1.17, "G2 cells, % of GMNN control": 11.2, "Outcome": "inactive"}
{"gene symbol": "ECSCR", "siRNA no.": 1, "G2 robust z-score": 2.46, "G2 cells, % of GMNN control": 20.3, "Outcome": "inactive"}
{"gene symbol": "ECSCR", "siRNA no.": 2, "G2 robust z-score": 0.771, "G2 cells, % of GMNN control": 8.39, "Outcome": "inactive"}
{"gene symbol": "ECSCR", "siRNA no.": 3, "G2 robust z-score": 0.071, "G2 cells, % of GMNN control": 3.47, "Outcome": "inactive"}
{"gene symbol": "GHRH", "siRNA no.": 1, "G2 robust z-score": 0.743, "G2 cells, % of GMNN control": 8.19, "Outcome": "inactive"}
{"gene symbol": "GHRH", "siRNA no.": 2, "G2 robust z-score": 0.868, "G2 cells, % of GMNN control": 9.08, "Outcome": "inactive"}
{"gene symbol": "GHRH", "siRNA no.": 3, "G2 robust z-score": 0.54, "G2 cells, % of GMNN control": 6.76, "Outcome": "inactive"}

Part of the list above, set out differently:
| gene symbol | siRNA no. | G2 robust z-score | G2 cells, % of GMNN control | Outcome |
| --- | --- | --- | --- | --- |
| TMPO | 3 | -0.138 | 2 | inactive |
| RAP1B | 1 | -0.512 | -0.634 | inactive |
